Assay [1] has as its target T1, Flag-tagged full-length human ITPRIPL1 (expressed from pcDNA3.1 in transfected cells) (human) (UniProt Q6GPH6).
T1 sequence: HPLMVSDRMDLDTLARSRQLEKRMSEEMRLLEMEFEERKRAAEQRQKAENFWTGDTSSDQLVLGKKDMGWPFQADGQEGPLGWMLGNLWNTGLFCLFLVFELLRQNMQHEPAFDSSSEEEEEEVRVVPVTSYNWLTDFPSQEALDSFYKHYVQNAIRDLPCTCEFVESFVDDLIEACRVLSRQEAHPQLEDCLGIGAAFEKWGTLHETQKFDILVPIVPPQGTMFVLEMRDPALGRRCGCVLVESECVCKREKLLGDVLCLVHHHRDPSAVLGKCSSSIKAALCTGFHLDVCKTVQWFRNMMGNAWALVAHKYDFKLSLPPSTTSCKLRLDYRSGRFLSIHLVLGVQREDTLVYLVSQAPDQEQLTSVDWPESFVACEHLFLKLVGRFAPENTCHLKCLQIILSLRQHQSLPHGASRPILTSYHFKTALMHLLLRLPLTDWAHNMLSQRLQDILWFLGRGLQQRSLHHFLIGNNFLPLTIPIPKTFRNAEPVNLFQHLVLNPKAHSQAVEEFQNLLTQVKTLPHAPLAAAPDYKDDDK
Kind of assay: flow cytometry on HCT116-ITPRIPL1 cells, 2 µg/ml CD3E-human Fc. In general terms: In flow cytometry, cells or beads pass a laser one at a time.

By UniProt entry, the sequences of proteins in these tests, tags left out. Residues count along the entry.
UniProt P07766, residues 23-126: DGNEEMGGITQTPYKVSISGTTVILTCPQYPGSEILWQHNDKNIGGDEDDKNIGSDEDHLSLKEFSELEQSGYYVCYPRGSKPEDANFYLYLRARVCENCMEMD

In assay [2] the target is T1, Flag-tagged full-length human ITPRIPL1 (expressed from pcDNA3.1 in transfected cells) (human). Briefly: flow cytometry on HCT116-ITPRIPL1 cells (legend of FIG. 13 and FIG. 14).

These are yes or no findings as the source states them, for the method shown. Some binding calls cover weakened binding; strength is not graded here. Tags and fused reporters may be left off the sequences shown.

“CD3E-human Fc protein (Sino Biological) (from UniProt P07766 23-126) (Fc fusion)”: the binding entry in assay [1] and in assay [2] was “binds” throughout.
